# Measurements: PubChem BioAssay AID1671190 (National Center for Advancing Translational Sciences (NCATS), 2021)
# Protein sequences, listed by entry. Tags and fused reporters are not part of them. Lines headed by an entry give the natural chain unless they say otherwise; changes in a name come on top.
# UniProt P18054: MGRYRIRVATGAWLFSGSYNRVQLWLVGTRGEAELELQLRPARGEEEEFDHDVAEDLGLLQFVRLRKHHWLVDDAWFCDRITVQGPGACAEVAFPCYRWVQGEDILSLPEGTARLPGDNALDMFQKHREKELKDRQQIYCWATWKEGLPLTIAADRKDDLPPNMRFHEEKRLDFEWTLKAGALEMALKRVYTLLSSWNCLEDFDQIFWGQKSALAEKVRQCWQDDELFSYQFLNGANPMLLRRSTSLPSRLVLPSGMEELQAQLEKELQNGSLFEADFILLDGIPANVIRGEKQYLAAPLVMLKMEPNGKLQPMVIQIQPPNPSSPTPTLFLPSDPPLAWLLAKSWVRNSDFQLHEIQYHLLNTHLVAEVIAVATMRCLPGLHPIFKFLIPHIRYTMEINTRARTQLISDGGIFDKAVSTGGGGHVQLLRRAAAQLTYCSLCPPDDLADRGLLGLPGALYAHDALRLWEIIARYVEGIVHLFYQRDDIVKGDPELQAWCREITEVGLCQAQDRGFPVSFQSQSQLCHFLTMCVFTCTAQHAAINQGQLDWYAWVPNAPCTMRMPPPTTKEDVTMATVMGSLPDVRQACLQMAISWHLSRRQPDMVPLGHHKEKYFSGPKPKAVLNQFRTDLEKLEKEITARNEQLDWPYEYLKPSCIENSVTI
# Out of some 580,000 compounds screened, about 6,100 (1.1%) were called active. Inconclusive results, whose numbers are uncertain, are shown with a selection of clear calls. Calls follow the shape of the dose curve; as a rule, active = well fitted inhibition curve with a large enough effect; inconclusive = small, poorly fitted or top-dose-only effect, or another doubt; inactive = no such curve, though single readings can be large or run the other way. Potencies beside an inconclusive call are fits to weak or partial responses and may not hold up. The source holds several records for some structures; these can differ, active in one and inactive in another.
# Target: Polyunsaturated fatty acid lipoxygenase ALOX12 (Homo sapiens) (UniProt P18054)
# Experiment: Primary qHTS assay for inhibitors of human arachidonate 12S-lipoxygenase (ALOX12): Round 2
# Settings: purified 12hLO, xylenol orange hydroperoxide absorbance; activity change, negative = inhibition: at 108 µM (top of the series) unless noted
# Outline: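 Purified human 12hLO (150 nM final) in 25 mM Hepes, 0.01% Triton X-100, pH 7.0 was preincubated 15 min at room temperature with compound. Then 40 uM arachidonic acid was added, 30 min. Hydroperoxide was read by Fe-XO absorbance ratio 573/405 nm.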
# % is scaled to controls: 0 for no effect and ±100 for the full control effect; potency is read from the fitted curve at half-maximal effect.
Structure (SMILES),Potency,"activity change, negative = inhibition"
Cc1ccc(-n2c(CSc3nc(C)cc(C)n3)n[nH]c2=S)cc1,"inconclusive: 44.7 µM [inhibitor, partial curve, poor fit]",
O=C(CSCCc1ccccn1)Nc1ccccn1,"inconclusive: 50.1 µM [inhibitor, single point]",
CCOc1ccc(S(=O)(=O)Nc2ccc3oc(C)c(C(=O)OCCOC)c3c2)cc1,"inconclusive: 79.4 µM [inhibitor, partial curve, poor fit]",
Cc1cc(C)cc(NC(=O)C2CCN(S(=O)(=O)c3c(C)n[nH]c3C)CC2)c1,"inconclusive: 126 µM [inhibitor, single point]",
CCC(C)NC(=O)C1=CC(c2cc(OC)ccc2OC)=NS(=O)(=O)N1C (centres undefined),,inactive: -6.01%
Oc1ccc(N=Nc2nc(-c3ccccc3)c(-c3ccccc3)[nH]2)cc1,"inconclusive: 44.7 µM [inhibitor, partial curve, poor fit]",
COCCN(CCOC)Cc1cc(=O)oc2cc(C)ccc12,"inconclusive: 56.2 µM [inhibitor, partial curve, poor fit]",
CCN1CCN(C(C)C(=O)NC2CCCCC2)CC1 (centres undefined),"inconclusive: 1.12 µM [inhibitor, full curve, poor fit]",
Cc1ccc(C(=O)N2CC(C(=O)NC3CCCCC3)C3(CCOCC3)C2)cc1 (centres undefined),,inactive: 59.5%
O=C(Nc1ccc(Br)cc1)C1CCCN(S(=O)(=O)c2ccc(Br)s2)C1 (centres undefined),"inconclusive: 63.1 µM [inhibitor, partial curve, poor fit]",
CCCCN(CC)C(=O)/C=C/c1cccc([N+](=O)[O-])c1,,inactive: 0%
COc1ccc(OC)c(C(Nc2ccccc2)P(=O)(OC(C)C)OC(C)C)c1 (centres undefined),,inactive: 0%
Cc1cccc(Cc2cnc(NC(=O)CCc3nnc(-c4ccsc4)o3)s2)c1Cl,"inconclusive: 100 µM [inhibitor, single point]",
COc1cc(C(=O)Nc2ccc(O)cc2C(=O)O)ccc1OC(C)=O,"inconclusive: 31.6 µM [inhibitor, partial curve, poor fit]",
O=C(Nc1cccc(-n2cccn2)c1)C1CCCN1C(=O)C1CCC1 (centres undefined),,inactive: 55%
COc1cc(OC)cc(C(=O)NC2CCCN(Cc3ccc(Cl)cc3)C2)c1 (centres undefined),"inconclusive: 4.47 µM [inhibitor, full curve, poor fit]",
COc1ccc(C=Cc2ccc3ccccc3n2)c(OC)c1,,inconclusive: -38.4% [inhibitor]
Cc1nnc(NC(=O)c2sc3ccccc3c2Cl)s1,,inactive: 0% [at 57.4 µM]
Cc1ccc(-n2c(C)cc(/C=N/NC(=O)c3ccncc3)c2C)cc1,"inconclusive: 100 µM [inhibitor, partial curve, poor fit]",
CCn1ncc(N2CCCC(CC(=O)NCc3cccc(Cl)c3)C2)cc1=O (centres undefined),,inactive: 52.4%
O=c1[nH]nc2n1CCC(NS(=O)(=O)c1ccc3c(c1)CCC3)CC2 (centres undefined),"inconclusive: 20 µM [inhibitor, full curve, poor fit]",
Cc1cccc(-n2c3c(cc(C#N)c2=O)C(=O)CC(c2ccccc2)C3)c1C (centres undefined),,inactive: -7.97%

Structure (SMILES),Potency,"activity change, negative = inhibition"
C[C@H](CO)N1C[C@H](C)[C@@H](CN(C)S(=O)(=O)c2ccccc2)OCc2cnnn2CCCC1=O,"inconclusive: 89.1 µM [inhibitor, single point]",
CSc1cccc(NC(=O)/C=C/c2ccc(Cl)cc2Cl)c1,"inconclusive: 35.5 µM [inhibitor, partial curve, poor fit]",
COCC(C)NC(=O)CSc1ncnc2sc(-c3ccccc3)cc12 (centres undefined),,inactive: 0%
O=c1[nH]c2ccc(NCc3ccc(-c4cccc(Cl)c4)o3)cc2[nH]1,"inconclusive: 112 µM [inhibitor, partial curve, poor fit]",
CC(C)c1ccc(NC(=O)Cn2nnc(C(=O)NCc3ccco3)c2N)cc1,"inconclusive: 63.1 µM [inhibitor, partial curve, poor fit]",
COc1ccc(/C(=N/O)C(C)(C)NO)cc1,"inconclusive: 31.6 µM [inhibitor, single point]",
Cn1c(=O)c2c(nc(N3CCCCCC3)n2CCCc2ccccc2)n(C)c1=O,"inconclusive: 63.1 µM [inhibitor, partial curve, poor fit]",
CCC(Oc1ccccc1)C(=O)Nc1ccc(S(=O)(=O)Nc2cnc3ccccc3n2)cc1 (centres undefined),"inconclusive: 89.1 µM [inhibitor, single point]",
COc1cc(/C=C2/C(=N)N3C(=NC2=O)SN=C3S(=O)(=O)C(C)C)ccc1OC(=O)c1ccco1,"inconclusive: 44.7 µM [inhibitor, partial curve, poor fit]",
CC(OC(=O)C1CCN(S(=O)(=O)c2ccc(C(C)(C)C)cc2)CC1)C(=O)N1CCOCC1 (centres undefined),active: 44.7 µM,
COc1ccc(NC(=S)Nc2ccc(OCc3ccccc3)cc2)c(OC)c1,active: 35.5 µM,
Cc1cccc(C)c1OCC(O)CN1CCC(CN2C(=O)c3cccc4cccc(c34)C2=O)CC1 (centres undefined),"inconclusive: 126 µM [inhibitor, single point]",
O=C(N/N=C/c1ccc(Cl)s1)c1ccccc1[N+](=O)[O-],,inactive: 414%
CCN(CC)CCC(C)OC(c1ccccc1)c1ccccc1 (centres undefined),"inconclusive: 39.8 µM [inhibitor, partial curve, poor fit]",
CS(=O)(=O)Cc1cc(Sc2ccccc2)nc(-c2ccncc2)n1,"inconclusive: 89.1 µM [inhibitor, single point]",
COc1ccc2cc(C(=O)N/N=C/c3sc4ccccc4c3O)ccc2c1,"inconclusive: 44.7 µM [inhibitor, partial curve, poor fit]",
Cc1ccc(N=C2NC(=O)/C(=C/C=C/c3ccco3)S2)cc1,active: 31.6 µM,
CC1CCc2sc3c(c2C1)c(=O)n(CC(=O)O)c(=O)n3Cc1ccc(Cl)cc1 (centres undefined),"inconclusive: 50.1 µM [inhibitor, partial curve, poor fit]",
Nc1[nH]c(=S)nc2nc(-c3ccccc3)c(-c3ccccc3)nc12,"inconclusive: 50.1 µM [inhibitor, partial curve]",
O=C1NC2(CCN(Cc3ccccn3)CC2)COc2ccccc21,,inactive: 70.8% [at 176 µM]
Fc1ccc(N/N=C/c2cccc(Br)c2)c(F)c1,active: 15.8 µM,
CN(C)c1nc(-c2cccc(C#N)c2)nc2ccccc12,"inconclusive: 12.6 µM [inhibitor, partial curve, poor fit]",

# A run of entries from the list above, as a working copy:
Structure (SMILES),Potency,"activity change, negative = inhibition"
CCN1CCN(C(C)C(=O)NC2CCCCC2)CC1 (centres undefined),"inconclusive: 1.12 µM [inhibitor, full curve, poor fit]",
Cc1ccc(C(=O)N2CC(C(=O)NC3CCCCC3)C3(CCOCC3)C2)cc1 (centres undefined),,inactive: 59.5%
O=C(Nc1ccc(Br)cc1)C1CCCN(S(=O)(=O)c2ccc(Br)s2)C1 (centres undefined),"inconclusive: 63.1 µM [inhibitor, partial curve, poor fit]",

# Following part

Structure (SMILES),Potency,"activity change, negative = inhibition"
CC(C)CNc1ncnc2c1ncn2[C@H]1CN(Cc2cccc3ccccc23)C[C@@H](CO)O1,"inconclusive: 112 µM [inhibitor, single point]",
Cn1cccc1C(=O)N1CCC2(CC1)C(=O)NCN2Cc1ccc(Cl)cc1,,inactive: 26.4%
Cc1ccc(/C=C/C(=O)NC2CCc3ccccc32)o1 (centres undefined),"inconclusive: 8.91 µM [inhibitor, partial curve, poor fit]",
O=c1c2c(-c3ccccc3)csc2nc2c3ccccc3c(NCCN3CCOCC3)nn12,"inconclusive: 89.1 µM [inhibitor, partial curve, poor fit]",
Cc1ccc(C)c(Cn2c(C(C)NC(=O)c3ccc(F)cc3)nc3ccccc32)c1 (centres undefined),,inactive: -33.7%
COc1ccc(C(=O)N2CC(c3nc(CCN(C)C(=O)C4CC4)no3)C2)c(OC)n1,,inactive: 14.4%
CC1(C)CC(=O)C2=C(C1)OC1=C(C(=O)CC(C)(C)C1)C2c1ccc(O)cc1O,"inconclusive: 25.1 µM [inhibitor, full curve]",
CC(C)NS(=O)(=O)c1ccc2c(c1)nc(-c1ccc(CO)o1)n2C(C)C,"inconclusive: 31.6 µM [inhibitor, partial curve, poor fit]",
COc1ccc(N2CCN(C(=O)c3c(C)oc4ncnc(N5CCCCC5)c34)CC2)cc1,"inconclusive: 63.1 µM [inhibitor, partial curve, poor fit]",
CCc1cccc(NC(=O)c2nnn(Cc3ccc(SC)cc3)c2N)c1,,inactive: -4.41%
COc1cccc(N2C(=O)C(CC(=O)Nc3ccc(Cl)cc3)N(Cc3ccc4c(c3)OCO4)C2=O)c1 (centres undefined),"inconclusive: 126 µM [inhibitor, single point]",
CC(=O)Oc1c(-c2ccc(NC(=O)c3ccc4c(c3)OCO4)cc2)c(C2CC2)nn1-c1cccc(F)c1,"inconclusive: 39.8 µM [inhibitor, single point]",
CC(C)(C)S(=O)N1Cc2cc(C(=O)N[C@@H]3CCN(Cc4ccccc4)C3)nc(-c3cccc(-c4cc5ccccc5o4)c3)c2[C@@H]1CCO (some centres undefined),"inconclusive: 100 µM [inhibitor, single point]",
O=C(O)C(c1c[nH]c2cc(F)ccc12)N1CCN(c2cccc(Cl)c2)CC1 (centres undefined),"inconclusive: 44.7 µM [inhibitor, partial curve, poor fit]",
CC(C)Oc1ccc(C(=O)N2CCc3c(sc4ncnc(N)c34)C2)cc1,"inconclusive: 1 µM [inhibitor, full curve]",
COc1ccccc1N1CCN(c2nc(CNC(=O)c3cc(C)oc3C)nc3ccccc23)CC1,"inconclusive: 89.1 µM [inhibitor, partial curve, poor fit]",
COc1ccc(OC)c(-n2cnc3cc(C(=O)NC4CC4)ccc3c2=O)c1,,inactive: 3.65%
COc1ccccc1-c1cncnc1NCc1ccccc1,"inconclusive: 44.7 µM [inhibitor, partial curve, poor fit]",
COc1ccc(S(=O)(=O)ON=C2CC(C)(C)N(C(C)=O)C(C)(C)C2)cc1,"inconclusive: 44.7 µM [inhibitor, partial curve, poor fit]",
O=C(O)CCn1cc(C(C(=O)O)N2CCCC2)c2ccc(Br)cc21 (centres undefined),"inconclusive: 35.5 µM [inhibitor, partial curve, poor fit]",
